Reference: PubChem BioAssay AID192 (DTP/NCI, 2004)
The list is a part of this screen's results and no random one: it gathers tests that were run many times, whatever their T/C, doses with no T/C, and many T/C values between a quarter and a half above the control. Other doses and runs of a compound stand elsewhere. T/C gives the treated animals as a percentage of the vehicle group. Some entries give survivors of the animals treated and no T/C: the source files T/C as zero there, which appears to mark a toxic dose or a test without result, not a measured value. Some doses without a T/C left all or most animals alive at the check, yet need not have been tolerated: the source hardly ever lists a survival T/C far under the control, and the zero likely stands for such cases as well. Counts of survivors are from the toxicity check (mostly the fifth day) where no day follows; animals may have died later. Schedule codes are those of the source, read here as Q, the interval in days (D) or hours (H), X, the number of doses. Some entries hold several experiments; their values stand side by side, smallest first. Counts like (3×) say how often a value occurs here. For survival time, this PubChem deposit counts one and a half times the control or more as active, and values a quarter to a half above the control carry no call in these data; other NCI protocols may use other cut-offs. Some T/C values carry the count of animals alive at the toxicity check (mostly the fifth day); without a count, all were alive then.

System: BDF1 mice, B16 melanoma ip, median survival T/C
Assay: NCI In Vivo Anticancer Drug Screen. Data for tumor model B16 Melanoma (intraperitoneal) in B6D2F1 (BDF1) mice
Conditions: T/C endpoint: median survival time, higher T/C = longer survival
In short: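 Read-out: survival or tumor size, given as treated/control ratio. Controls received vehicle only; animals bore transplantable tumors.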

[1] = dose: 12.5 mg/kg/injection, schedule: Q01DX001 (ip), vehicle: Klucel (hydroxypropylcellulose) (HPC)
[2] = dose: 32.0 mg/kg/injection, schedule: Q01DX009 (ip), vehicle: Klucel (hydroxypropylcellulose) (HPC)
[3] = dose: 32.0 mg/kg/injection, schedule: Q01DX009 (ip), vehicle: saline
[4] = dose: 50.0 mg/kg/injection, schedule: Q01DX001 (ip), vehicle: Klucel (hydroxypropylcellulose) (HPC)
[5] = dose: 100.0 mg/kg/injection, schedule: Q01DX001 (ip), vehicle: Klucel (hydroxypropylcellulose) (HPC)

In the case of `O=NN(CCCl)C(=O)NC1CCCCC1`, the T/C (dose: 1.0 mg/kg/injection, schedule: Q01DX009 (ip), vehicle: Klucel (hydroxypropylcellulose) (HPC)) is reported as 94, 95 (2×), 96, 99, 102 [9 of 10 alive], 107, 111, 112 % of control, the T/C (dose: 2.0 mg/kg/injection, schedule: Q01DX009 (ip), vehicle: Klucel (hydroxypropylcellulose) (HPC), evaluated on day 45) is reported as 103 % of control and the T/C (dose: 2.0 mg/kg/injection, schedule: Q01DX009 (ip), vehicle: Klucel (hydroxypropylcellulose) (HPC), evaluated on day 60) is reported as 92, 102, 104, 107, 108, 109, 110 (2×), 113, 120 % of control. For the same molecule, the T/C (dose: 4.0 mg/kg/injection, schedule: Q01DX009 (ip), vehicle: Klucel (hydroxypropylcellulose) (HPC), evaluated on day 45) was 140 % of control, the T/C (dose: 4.0 mg/kg/injection, schedule: Q01DX009 (ip), vehicle: Klucel (hydroxypropylcellulose) (HPC), evaluated on day 60) was 104, 105 (2×), 107, 110, 111 (3×), 112, 114, 117 [5 of 6 alive], 119, 122, 126, 129, 130, 132 [5 of 6 alive], 133, 135, 140, 141, 144, 149, 156, 167 % of control and the T/C (dose: 4.0 mg/kg/injection, schedule: Q01DX009 (ip), vehicle: saline with Tween-80, evaluated on day 45) was 95, 108, 118 % of control. The T/C (dose: 4.0 mg/kg/injection, schedule: Q01DX009 (ip), vehicle: saline with Tween-80, evaluated on day 60) was 94, 96, 105 % of control, the T/C (dose: 4.0 mg/kg/injection, schedule: Q01DX009 (ip), vehicle: saline) was 102, 102 [5 of 6 alive], 106 (2×), 115, 131 % of control and the T/C (dose: 8.0 mg/kg/injection, schedule: Q01DX001 (ip), vehicle: Klucel (hydroxypropylcellulose) (HPC)) was 143 % of control. For the same molecule, the T/C (dose: 8.0 mg/kg/injection, schedule: Q01DX009 (ip), vehicle: Klucel (hydroxypropylcellulose) (HPC), evaluated on day 45) was 174 % of control, the T/C (dose: 8.0 mg/kg/injection, schedule: Q01DX009 (ip), vehicle: Klucel (hydroxypropylcellulose) (HPC), evaluated on day 60) was 88, 100, 117, 119, 120 (2×), 125, 137 (2×), 139 (2×), 142 [9 of 10 alive], 150, 157, 170, 175, 182, 185, 190, 194, 202, 207 [9 of 10 alive], 209, 225, 259 % of control and the T/C (dose: 8.0 mg/kg/injection, schedule: Q01DX009 (ip), vehicle: saline with Tween-80, evaluated on day 45) was 118, 127, 137 % of control. For the same molecule, the T/C (dose: 8.0 mg/kg/injection, schedule: Q01DX009 (ip), vehicle: saline with Tween-80, evaluated on day 60) was 105, 111, 117, 160 % of control, the T/C (dose: 8.0 mg/kg/injection, schedule: Q01DX009 (ip), vehicle: saline) was 113, 123 (2×), 126, 145, 157 % of control and the T/C (dose: 12.0 mg/kg/injection, schedule: Q01DX001 (ip), vehicle: Klucel (hydroxypropylcellulose) (HPC)) was 104, 111, 112, 126, 132, 157, 161, 191 % of control. For the same molecule, the T/C [1] was 104, 105 [5 of 6 alive], 115, 117, 120, 127 % of control, the survivor count [1] was 5 of 6 and the T/C (dose: 12.5 mg/kg/injection, schedule: Q01DX001 (ip), vehicle: saline with Tween-80, evaluated on day 45) was 100, 105, 117, 120 % of control. For the same molecule, the T/C (dose: 12.5 mg/kg/injection, schedule: Q01DX001 (ip), vehicle: saline with Tween-80, evaluated on day 60) was 96, 108, 111 % of control, the T/C (dose: 12.5 mg/kg/injection, schedule: Q01DX001 (ip), vehicle: saline) was 97, 100, 106, 119 % of control and the T/C (dose: 15.0 mg/kg/injection, schedule: Q01DX001 (ip), vehicle: other) was 129 % of control. The T/C (dose: 16.0 mg/kg/injection, schedule: Q01DX009 (ip), vehicle: Klucel (hydroxypropylcellulose) (HPC), evaluated on day 45) was 141 % of control, the T/C (dose: 16.0 mg/kg/injection, schedule: Q01DX009 (ip), vehicle: Klucel (hydroxypropylcellulose) (HPC), evaluated on day 60) was 89, 90, 105, 108, 120, 152, 178, 180, 182, 188 (3×), 194, 195, 197, 200 (2×), 205, 213, 222, 250 [5 of 6 alive], 257, 290 % of control and the survivor count (dose: 16.0 mg/kg/injection, schedule: Q01DX009 (ip), vehicle: Klucel (hydroxypropylcellulose) (HPC)) was 9 of 10 and 6 of 6. For the same molecule, the T/C (dose: 16.0 mg/kg/injection, schedule: Q01DX009 (ip), vehicle: saline with Tween-80, evaluated on day 45) was 162, 191, 218 % of control, the T/C (dose: 16.0 mg/kg/injection, schedule: Q01DX009 (ip), vehicle: saline with Tween-80, evaluated on day 60) was 158, 171, 233, 307 % of control and the T/C (dose: 16.0 mg/kg/injection, schedule: Q01DX009 (ip), vehicle: saline) was 91, 152, 185, 189, 200, 285 % of control. For the same molecule, the T/C (dose: 25.0 mg/kg/injection, schedule: Q01DX001 (ip), vehicle: Klucel (hydroxypropylcellulose) (HPC)) was 110, 112, 116, 117, 122, 128, 136, 150, 154, 155, 160, 173, 175, 214, 333 % of control, the T/C (dose: 25.0 mg/kg/injection, schedule: Q01DX001 (ip), vehicle: saline with Tween-80, evaluated on day 45) was 112 (2×), 115, 119 % of control and the T/C (dose: 25.0 mg/kg/injection, schedule: Q01DX001 (ip), vehicle: saline with Tween-80, evaluated on day 60) was 101, 108, 136 % of control. For the same molecule, the T/C (dose: 25.0 mg/kg/injection, schedule: Q01DX001 (ip), vehicle: saline) was 102, 103, 110, 115, 145 % of control, the T/C [2] was 92, 94 [4 of 6 alive], 107, 111, 114, 115, 126 [5 of 6 alive], 146, 188 % of control and the survivor count [2] was 5 of 6, 10 of 10 (3×), 6 of 6. The T/C (dose: 32.0 mg/kg/injection, schedule: Q01DX009 (ip), vehicle: saline with Tween-80, evaluated on day 45) was 110 and 124 % of control, the T/C (dose: 32.0 mg/kg/injection, schedule: Q01DX009 (ip), vehicle: saline with Tween-80, evaluated on day 60) was 128 % of control and the survivor count (dose: 32.0 mg/kg/injection, schedule: Q01DX009 (ip), vehicle: saline with Tween-80) was 5 of 6 (2×) and 6 of 6. The T/C [3] was 135, 139, 142, 144, 147 % of control, the survivor count [3] was 6 of 6 and the T/C [4] was 92 [5 of 6 alive], 100, 107, 110 [5 of 6 alive], 125, 141, 150, 172, 187, 188, 207, 214, 255, 333 % of control. The survivor count [4] was 6 of 6, the T/C (dose: 50.0 mg/kg/injection, schedule: Q01DX001 (ip), vehicle: saline with Tween-80, evaluated on day 45) was 100 (2×), 122, 150 % of control and the T/C (dose: 50.0 mg/kg/injection, schedule: Q01DX001 (ip), vehicle: saline with Tween-80, evaluated on day 60) was 100, 116, 207 % of control. The T/C (dose: 50.0 mg/kg/injection, schedule: Q01DX001 (ip), vehicle: saline) was 112, 113, 121 (2×), 184 % of control, the T/C (dose: 60.0 mg/kg/injection, schedule: Q01DX001 (ip), vehicle: other) was 134 % of control [9 of 10 alive on day 6] and the survivor count (dose: 64.0 mg/kg/injection, schedule: Q01DX009 (ip), vehicle: Klucel (hydroxypropylcellulose) (HPC)) was 9 of 10. For the same molecule, the survivor count (dose: 64.0 mg/kg/injection, schedule: Q01DX009 (ip), vehicle: saline with Tween-80) was 10 of 10, the T/C [5] was 86, 88, 94, 95, 122 [5 of 6 alive], 135, 153, 155, 176 % of control and the survivor count [5] was 4 of 6, 5 of 6, 6 of 6. The T/C (dose: 100.0 mg/kg/injection, schedule: Q01DX001 (ip), vehicle: saline with Tween-80, evaluated on day 45) was 95 and 140 % of control [5 of 6 alive], the T/C (dose: 100.0 mg/kg/injection, schedule: Q01DX001 (ip), vehicle: saline with Tween-80, evaluated on day 60) was 230 % of control and the survivor count (dose: 100.0 mg/kg/injection, schedule: Q01DX001 (ip), vehicle: saline with Tween-80) was 5 of 6 and 6 of 6 (2×). The T/C (dose: 100.0 mg/kg/injection, schedule: Q01DX001 (ip), vehicle: saline) was 96, 124, 128, 134, 184 % of control, the survivor count (dose: 120.0 mg/kg/injection, schedule: Q01DX001 (ip), vehicle: other) was 7 of 10 on day 6 and the survivor count (dose: 128.0 mg/kg/injection, schedule: Q01DX009 (ip), vehicle: Klucel (hydroxypropylcellulose) (HPC)) was 3 of 10.
With `CCCC(=O)OCC1OC(n2cnc3c(=S)nc(N)[nH]c32)C(OC(=O)CCC)C1OC(=O)CCC` (stereo not given) the T/C (dose: 3.12 mg/kg/injection, schedule: Q01DX009 (ip), vehicle: Klucel (hydroxypropylcellulose) (HPC)) was 134 % of control.
